Experimental data from the supplement of paper PMC12819154, “High-throughput peptide-centric local stability assay extends protein–ligand identification to membrane proteins, tissues and bacteria” (Nature Structural & Molecular Biology, 2025).
The other results are listed elsewhere or left out. Small differences around the control level are noise.

Sequences of proteins named here, by UniProt entry; tags and fusion partners are left off. A change or cut given only in a name is not applied to a line headed by its entry.
UniProt Q9NWK9: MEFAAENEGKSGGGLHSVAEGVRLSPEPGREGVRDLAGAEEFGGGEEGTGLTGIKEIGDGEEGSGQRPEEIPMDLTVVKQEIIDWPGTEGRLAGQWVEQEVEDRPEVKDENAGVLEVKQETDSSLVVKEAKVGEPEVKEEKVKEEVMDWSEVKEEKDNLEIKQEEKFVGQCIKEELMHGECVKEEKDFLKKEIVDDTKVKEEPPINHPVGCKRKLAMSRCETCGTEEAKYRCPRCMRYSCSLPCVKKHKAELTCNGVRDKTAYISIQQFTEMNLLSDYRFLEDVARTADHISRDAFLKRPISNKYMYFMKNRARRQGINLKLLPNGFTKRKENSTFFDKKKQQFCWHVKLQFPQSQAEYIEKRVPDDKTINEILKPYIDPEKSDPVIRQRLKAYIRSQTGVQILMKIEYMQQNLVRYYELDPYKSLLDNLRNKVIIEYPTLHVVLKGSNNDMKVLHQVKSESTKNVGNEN
UniProt Q9NWH9: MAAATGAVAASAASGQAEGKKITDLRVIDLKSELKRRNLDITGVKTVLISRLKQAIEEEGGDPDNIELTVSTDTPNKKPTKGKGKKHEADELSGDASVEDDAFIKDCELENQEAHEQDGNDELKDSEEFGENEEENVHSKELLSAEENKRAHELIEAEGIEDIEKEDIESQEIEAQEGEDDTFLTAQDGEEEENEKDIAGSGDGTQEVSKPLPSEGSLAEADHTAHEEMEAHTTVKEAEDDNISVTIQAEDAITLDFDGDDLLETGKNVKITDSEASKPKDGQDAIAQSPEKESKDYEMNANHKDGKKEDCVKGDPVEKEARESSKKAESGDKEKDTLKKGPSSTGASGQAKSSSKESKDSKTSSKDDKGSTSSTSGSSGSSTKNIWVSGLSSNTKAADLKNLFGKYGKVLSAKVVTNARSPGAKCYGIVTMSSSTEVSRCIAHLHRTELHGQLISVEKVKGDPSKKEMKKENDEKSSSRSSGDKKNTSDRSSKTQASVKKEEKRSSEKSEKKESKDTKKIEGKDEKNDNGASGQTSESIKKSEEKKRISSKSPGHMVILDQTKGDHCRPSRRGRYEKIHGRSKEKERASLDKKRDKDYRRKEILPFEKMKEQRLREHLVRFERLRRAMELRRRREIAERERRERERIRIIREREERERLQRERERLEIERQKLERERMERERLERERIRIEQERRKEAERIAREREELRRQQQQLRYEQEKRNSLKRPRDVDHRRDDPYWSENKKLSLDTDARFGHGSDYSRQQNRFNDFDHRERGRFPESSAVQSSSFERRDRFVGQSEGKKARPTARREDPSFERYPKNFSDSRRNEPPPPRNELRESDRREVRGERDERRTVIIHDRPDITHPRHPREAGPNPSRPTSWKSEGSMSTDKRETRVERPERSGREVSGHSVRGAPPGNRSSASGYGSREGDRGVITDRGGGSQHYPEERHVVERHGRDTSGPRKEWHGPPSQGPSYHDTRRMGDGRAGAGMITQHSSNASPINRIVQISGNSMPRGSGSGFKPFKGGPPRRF
UniProt Q9NVF7: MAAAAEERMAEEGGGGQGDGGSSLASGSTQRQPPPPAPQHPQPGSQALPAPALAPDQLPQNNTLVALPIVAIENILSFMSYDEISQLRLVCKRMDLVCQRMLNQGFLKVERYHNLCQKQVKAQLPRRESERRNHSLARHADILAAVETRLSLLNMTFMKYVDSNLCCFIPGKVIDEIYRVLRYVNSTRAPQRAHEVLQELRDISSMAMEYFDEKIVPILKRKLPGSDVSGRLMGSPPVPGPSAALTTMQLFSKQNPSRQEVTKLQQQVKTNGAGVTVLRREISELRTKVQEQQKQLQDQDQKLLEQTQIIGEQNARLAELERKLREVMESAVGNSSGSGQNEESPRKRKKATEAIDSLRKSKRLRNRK
UniProt Q9NX05: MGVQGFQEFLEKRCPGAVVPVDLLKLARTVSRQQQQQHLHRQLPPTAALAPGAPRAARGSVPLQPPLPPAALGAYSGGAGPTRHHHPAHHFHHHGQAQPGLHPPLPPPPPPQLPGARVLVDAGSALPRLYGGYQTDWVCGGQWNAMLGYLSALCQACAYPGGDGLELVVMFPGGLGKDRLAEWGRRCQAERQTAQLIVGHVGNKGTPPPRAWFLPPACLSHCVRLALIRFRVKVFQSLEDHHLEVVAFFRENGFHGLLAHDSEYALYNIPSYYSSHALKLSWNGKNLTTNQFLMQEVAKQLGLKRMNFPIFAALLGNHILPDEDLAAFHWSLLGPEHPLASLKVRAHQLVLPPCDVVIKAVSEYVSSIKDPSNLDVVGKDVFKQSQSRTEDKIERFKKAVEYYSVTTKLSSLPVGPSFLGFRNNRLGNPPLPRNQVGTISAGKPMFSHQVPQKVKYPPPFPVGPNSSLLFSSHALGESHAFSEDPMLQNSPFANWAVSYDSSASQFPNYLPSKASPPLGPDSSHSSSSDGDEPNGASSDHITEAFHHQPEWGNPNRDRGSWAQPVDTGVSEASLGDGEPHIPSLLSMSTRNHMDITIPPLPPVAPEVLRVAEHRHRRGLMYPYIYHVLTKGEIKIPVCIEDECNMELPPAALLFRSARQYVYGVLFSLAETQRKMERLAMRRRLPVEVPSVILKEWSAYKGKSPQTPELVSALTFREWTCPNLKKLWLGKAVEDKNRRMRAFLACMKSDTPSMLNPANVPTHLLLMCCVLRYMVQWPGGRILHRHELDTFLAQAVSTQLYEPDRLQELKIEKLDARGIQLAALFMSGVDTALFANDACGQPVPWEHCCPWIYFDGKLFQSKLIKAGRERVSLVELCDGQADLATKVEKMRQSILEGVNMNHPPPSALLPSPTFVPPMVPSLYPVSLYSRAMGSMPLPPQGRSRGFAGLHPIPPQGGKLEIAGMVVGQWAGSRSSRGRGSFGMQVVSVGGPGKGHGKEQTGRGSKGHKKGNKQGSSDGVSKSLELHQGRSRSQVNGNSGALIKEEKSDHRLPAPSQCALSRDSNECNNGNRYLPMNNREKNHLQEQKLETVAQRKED
UniProt Q9NW81: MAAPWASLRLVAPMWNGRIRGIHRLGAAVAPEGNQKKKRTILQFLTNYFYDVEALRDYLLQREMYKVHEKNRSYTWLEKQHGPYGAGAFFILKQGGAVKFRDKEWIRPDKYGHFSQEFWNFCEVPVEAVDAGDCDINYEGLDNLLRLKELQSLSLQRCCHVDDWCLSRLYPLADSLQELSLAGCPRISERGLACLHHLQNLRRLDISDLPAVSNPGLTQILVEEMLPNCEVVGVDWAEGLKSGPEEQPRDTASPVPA
UniProt Q9NXX6: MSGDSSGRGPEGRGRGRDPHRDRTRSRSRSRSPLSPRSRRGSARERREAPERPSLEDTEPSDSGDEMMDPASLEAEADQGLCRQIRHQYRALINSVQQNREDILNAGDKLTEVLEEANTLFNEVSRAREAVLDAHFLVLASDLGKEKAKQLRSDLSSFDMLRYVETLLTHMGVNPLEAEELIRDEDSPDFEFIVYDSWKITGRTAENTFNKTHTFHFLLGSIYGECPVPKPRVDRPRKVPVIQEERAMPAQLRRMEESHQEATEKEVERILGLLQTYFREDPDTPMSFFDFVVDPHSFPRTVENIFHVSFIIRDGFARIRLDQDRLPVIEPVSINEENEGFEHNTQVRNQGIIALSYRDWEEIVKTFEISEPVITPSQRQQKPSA
UniProt Q9NX31: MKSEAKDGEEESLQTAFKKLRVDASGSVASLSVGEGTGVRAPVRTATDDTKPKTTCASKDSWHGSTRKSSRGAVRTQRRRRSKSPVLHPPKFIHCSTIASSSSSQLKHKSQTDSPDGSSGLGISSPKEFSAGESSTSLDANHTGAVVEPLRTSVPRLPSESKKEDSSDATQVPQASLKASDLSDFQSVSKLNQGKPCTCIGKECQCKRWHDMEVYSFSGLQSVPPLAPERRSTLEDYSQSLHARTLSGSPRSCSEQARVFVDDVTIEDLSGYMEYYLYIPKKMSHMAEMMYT
UniProt Q9NXV2: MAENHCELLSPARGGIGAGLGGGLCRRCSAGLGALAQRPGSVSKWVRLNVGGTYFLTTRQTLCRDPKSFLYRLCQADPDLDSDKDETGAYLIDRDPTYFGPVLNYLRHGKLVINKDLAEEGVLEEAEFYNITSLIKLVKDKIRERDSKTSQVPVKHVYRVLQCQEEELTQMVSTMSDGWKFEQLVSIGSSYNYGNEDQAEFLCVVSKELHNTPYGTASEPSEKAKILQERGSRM
UniProt Q9NQR4: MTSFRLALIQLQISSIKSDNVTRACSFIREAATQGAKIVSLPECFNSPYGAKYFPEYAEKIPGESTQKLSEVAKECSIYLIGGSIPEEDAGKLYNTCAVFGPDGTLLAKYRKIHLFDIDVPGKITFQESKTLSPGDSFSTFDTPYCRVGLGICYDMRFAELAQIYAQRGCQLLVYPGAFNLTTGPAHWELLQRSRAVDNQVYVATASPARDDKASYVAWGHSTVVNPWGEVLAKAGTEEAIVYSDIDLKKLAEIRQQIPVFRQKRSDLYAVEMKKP
UniProt Q9NVX0: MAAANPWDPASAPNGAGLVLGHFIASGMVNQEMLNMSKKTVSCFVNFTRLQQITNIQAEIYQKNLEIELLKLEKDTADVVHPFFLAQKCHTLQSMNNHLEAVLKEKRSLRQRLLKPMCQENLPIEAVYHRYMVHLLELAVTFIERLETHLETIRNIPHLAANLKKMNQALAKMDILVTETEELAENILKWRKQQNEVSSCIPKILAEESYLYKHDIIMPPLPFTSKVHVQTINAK
UniProt Q9NVG8: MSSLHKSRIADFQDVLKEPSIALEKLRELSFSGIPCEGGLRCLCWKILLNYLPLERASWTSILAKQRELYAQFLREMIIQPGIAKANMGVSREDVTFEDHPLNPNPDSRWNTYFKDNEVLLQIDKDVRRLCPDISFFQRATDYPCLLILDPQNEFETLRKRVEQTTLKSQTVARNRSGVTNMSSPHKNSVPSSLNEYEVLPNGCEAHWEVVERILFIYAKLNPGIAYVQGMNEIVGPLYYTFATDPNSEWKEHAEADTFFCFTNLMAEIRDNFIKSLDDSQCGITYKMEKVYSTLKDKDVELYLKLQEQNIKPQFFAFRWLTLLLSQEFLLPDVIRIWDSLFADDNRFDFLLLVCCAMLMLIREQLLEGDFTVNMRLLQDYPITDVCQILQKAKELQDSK
UniProt Q9NZ09: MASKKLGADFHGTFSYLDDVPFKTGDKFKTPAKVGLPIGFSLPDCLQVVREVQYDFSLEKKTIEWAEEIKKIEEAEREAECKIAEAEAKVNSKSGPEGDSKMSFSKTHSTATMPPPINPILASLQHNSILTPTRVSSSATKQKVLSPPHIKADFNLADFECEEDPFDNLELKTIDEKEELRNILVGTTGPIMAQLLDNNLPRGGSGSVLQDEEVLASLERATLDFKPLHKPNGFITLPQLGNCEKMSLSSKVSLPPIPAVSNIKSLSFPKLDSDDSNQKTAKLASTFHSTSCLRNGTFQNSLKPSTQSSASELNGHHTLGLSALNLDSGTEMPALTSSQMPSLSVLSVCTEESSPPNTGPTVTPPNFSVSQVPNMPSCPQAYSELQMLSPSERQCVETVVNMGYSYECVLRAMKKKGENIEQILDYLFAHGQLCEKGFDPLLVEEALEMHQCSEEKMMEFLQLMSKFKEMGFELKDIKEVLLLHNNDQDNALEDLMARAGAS
UniProt Q9NYK6: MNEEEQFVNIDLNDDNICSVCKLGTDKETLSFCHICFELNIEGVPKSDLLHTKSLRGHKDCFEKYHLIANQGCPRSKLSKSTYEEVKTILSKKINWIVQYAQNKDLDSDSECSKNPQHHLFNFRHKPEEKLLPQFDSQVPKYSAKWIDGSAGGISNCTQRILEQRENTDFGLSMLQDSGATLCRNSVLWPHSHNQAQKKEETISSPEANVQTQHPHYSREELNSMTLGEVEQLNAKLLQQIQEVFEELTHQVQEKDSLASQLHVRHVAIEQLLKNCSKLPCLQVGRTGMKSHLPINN
UniProt Q9NZ52: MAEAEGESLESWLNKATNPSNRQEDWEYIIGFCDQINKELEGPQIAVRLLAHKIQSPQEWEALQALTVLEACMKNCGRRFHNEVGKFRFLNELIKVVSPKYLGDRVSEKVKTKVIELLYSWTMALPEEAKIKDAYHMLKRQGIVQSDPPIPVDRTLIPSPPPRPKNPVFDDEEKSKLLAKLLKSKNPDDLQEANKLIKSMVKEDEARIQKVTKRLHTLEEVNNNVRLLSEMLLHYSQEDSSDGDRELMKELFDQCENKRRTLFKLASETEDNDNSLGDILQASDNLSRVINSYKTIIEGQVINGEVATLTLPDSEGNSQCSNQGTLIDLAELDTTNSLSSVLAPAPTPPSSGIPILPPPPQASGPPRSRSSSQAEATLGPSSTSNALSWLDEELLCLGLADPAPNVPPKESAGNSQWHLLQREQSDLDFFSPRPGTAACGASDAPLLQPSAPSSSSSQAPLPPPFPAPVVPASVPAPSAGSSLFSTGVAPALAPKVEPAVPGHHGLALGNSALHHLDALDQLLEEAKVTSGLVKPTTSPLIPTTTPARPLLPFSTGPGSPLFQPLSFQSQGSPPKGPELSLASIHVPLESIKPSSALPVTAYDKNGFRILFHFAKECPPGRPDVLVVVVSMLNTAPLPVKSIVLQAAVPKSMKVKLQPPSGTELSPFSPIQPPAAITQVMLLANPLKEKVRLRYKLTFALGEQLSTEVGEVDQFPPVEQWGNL

Compound: CN[C@@H]1C[C@H]2O[C@@](C)([C@@H]1OC)n1c3ccccc3c3c4c(c5c6ccccc6n2c5c31)C(=O)NC4 [staurosporine]
Experiment: log2 fold change of tryptic peptide abundance, ligand vs vehicle (limited proteolysis) (log2 ratio); higher = more trypsin-susceptible (destabilized)
Conditions: ligand concentration: 20 uM; sample: K562 cleared lysate; digestion: 4 min, 22 C (HT-PELSA RT4min, Orbitrap Astral)

| Target | log2 fold change |
| --- | --- |
| ZNHIT6 (peptide sequence: NKVIIEYPTLHVVLK, peptide start residue: 432) (UniProt Q9NWK9) | -0.54 |
| SAMSN1 (peptide sequence: KPSNVSEK, peptide start residue: 5) (UniProt Q9NSI8) | 0.17 |
| SLTM (peptide sequence: SSASGYGSR, peptide start residue: 922) (UniProt Q9NWH9) | -0.441 |
| FBXO28 (peptide sequence: HADILAAVETR, peptide start residue: 139) (UniProt Q9NVF7) | 0.958 |
| TMEM161A (peptide sequence: WANGLSEEKPLSVPR, peptide start residue: 64) (UniProt Q9NX61) | 0.0925 |
| INTS10 (peptide sequence: LPANLLYK, peptide start residue: 190) (UniProt Q9NVR2) | 0.757 |
| POLE3 (peptide sequence: KTLNASDVLSAMEEMEFQR, peptide start residue: 62) (UniProt Q9NRF9) | 0.309 |
| OLA1 (peptide sequence: GGDGIKPPPIIGR, peptide start residue: 6) (UniProt Q9NTK5) | 0.232 |
| NUDT15 (peptide sequence: NVHFASVVNSFIEK, peptide start residue: 74) (UniProt Q9NV35) | 0.858 |
| DDX56 (peptide sequence: GLVLVPTKELAR, peptide start residue: 85) (UniProt Q9NY93) | 0.321 |
| DUSP22 (peptide sequence: SCANPNVGFQR, peptide start residue: 123) (UniProt Q9NRW4) | -0.137 |
| FAM120C (peptide sequence: AHQLVLPPCDVVIK, peptide start residue: 271) (UniProt Q9NX05) | 0.0519 |
| UniProt Q9NW81 (peptide sequence: LGAAVAPEGNQK, peptide start residue: 25) | 0.052 |
| NSMCE4A (peptide sequence: TFEISEPVITPSQR, peptide start residue: 366) (UniProt Q9NXX6) | -0.278 |
| UniProt Q9NX31 (peptide sequence: FIHCSTIASSSSSQLK, peptide start residue: 92) | 0.163 |
| RGS18 (peptide sequence: ETRVSPEEAVK, peptide start residue: 72) (UniProt Q9NS28) | 0.0557 |
| TERF2IP (peptide sequence: QDDIDLQKDDEDTR, peptide start residue: 365) (UniProt Q9NYB0) | -0.117 |
| KCTD5 (peptide sequence: GGIGAGLGGGLCR, peptide start residue: 14) (UniProt Q9NXV2) | -0.078 |

| Target | log2 fold change |
| --- | --- |
| ECHDC1 (peptide sequence: DLLGTVWGGPANLEAIAK, peptide start residue: 284) (UniProt Q9NTX5) | 0.357 |
| UniProt Q9NUP1 (peptide sequence: AEAELGTFPR, peptide start residue: 159) | -0.196 |
| MED17 (peptide sequence: SLAGAAQILLK, peptide start residue: 152) (UniProt Q9NVC6) | 0.0821 |
| EXOC1 (peptide sequence: VIKEYPGK, peptide start residue: 812) (UniProt Q9NV70) | 0.662 |
| NIT2 (peptide sequence: AVDNQVYVATASPARDDK, peptide start residue: 196) (UniProt Q9NQR4) | 0.546 |
| PANK4 (peptide sequence: NIPHEAFVYQK, peptide start residue: 161) (UniProt Q9NVE7) | 0.599 |
| UniProt Q9NX55 (peptide sequence: VTIKKEDLELIMTEMEISR, peptide start residue: 80) | 0.477 |
| C14orf119 (peptide sequence: FLEDLVAK, peptide start residue: 57) (UniProt Q9NWQ9) | 0.171 |
| UniProt Q9NRR4 (peptide sequence: NTDSWAPPLEIVNHR, peptide start residue: 340) | 0.347 |
| TMLHE (peptide sequence: FDYVWLR, peptide start residue: 71) (UniProt Q9NVH6) | -0.0157 |
| UniProt Q9NVX0 (peptide sequence: NIPHLAANLK, peptide start residue: 155) | -0.83 |
| TBC1D13 (peptide sequence: SGVTNMSSPHK, peptide start residue: 177) (UniProt Q9NVG8) | 0.253 |
| OCIAD1 (peptide sequence: KLENSPLGEALR, peptide start residue: 104) (UniProt Q9NX40) | 0.572 |
| UBAP1 (peptide sequence: EVQYDFSLEKK, peptide start residue: 51) (UniProt Q9NZ09) | -0.457 |
| EURL (peptide sequence: LLPQFDSQVPK, peptide start residue: 131) (UniProt Q9NYK6) | -0.0628 |
| UniProt Q9NWV8 (peptide sequence: LESFNGSK, peptide start residue: 110) | 0.195 |
| GGA3 (peptide sequence: SKNPDDLQEANK, peptide start residue: 184) (UniProt Q9NZ52) | -0.149 |
| EIF4ENIF1 (peptide sequence: VKEDDLDVVLSPQRR, peptide start residue: 105) (UniProt Q9NRA8) | 0.676 |

Laid out differently: results already given.
TMLHE (peptide sequence: FDYVWLR, peptide start residue: 71) (UniProt Q9NVH6)
  log2 fold change: -0.0157
UniProt Q9NVX0 (peptide sequence: NIPHLAANLK, peptide start residue: 155)
  log2 fold change: -0.83
